The target in assay [1] is Peroxisome proliferator-activated receptor gamma (mouse (endogenous in primary mouse pulmonary fibroblasts)) (UniProt P37238). Description: co-IP; cells lysed in RIPA buffer with protease inhibitors; magnetic beads carrying a p-Smad3 antibody, a PPARγ antibody or IgG, 1 h at room temperature; Western blot; cells treated with lathyrol or pioglitazone; PPARγ siRNA in Figure 5E. (In western blotting, separated proteins are transferred to a membrane and probed.)

Chains of the proteins cited; added tags and fusions are not shown.
UniProt P37238: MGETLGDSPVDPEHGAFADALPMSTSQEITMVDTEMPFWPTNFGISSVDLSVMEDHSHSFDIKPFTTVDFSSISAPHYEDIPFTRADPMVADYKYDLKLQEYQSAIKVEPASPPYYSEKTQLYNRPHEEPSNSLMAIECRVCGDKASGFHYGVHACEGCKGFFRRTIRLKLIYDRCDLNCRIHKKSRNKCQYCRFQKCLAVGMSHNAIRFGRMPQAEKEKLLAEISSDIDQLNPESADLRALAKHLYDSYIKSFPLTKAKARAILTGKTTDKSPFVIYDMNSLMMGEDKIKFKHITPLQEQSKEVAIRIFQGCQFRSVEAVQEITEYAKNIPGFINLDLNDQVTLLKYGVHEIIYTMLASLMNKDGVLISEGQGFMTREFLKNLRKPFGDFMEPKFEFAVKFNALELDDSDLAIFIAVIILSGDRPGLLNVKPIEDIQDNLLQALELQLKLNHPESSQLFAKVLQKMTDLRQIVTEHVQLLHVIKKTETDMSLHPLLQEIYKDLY
UniProt Q8BUN5: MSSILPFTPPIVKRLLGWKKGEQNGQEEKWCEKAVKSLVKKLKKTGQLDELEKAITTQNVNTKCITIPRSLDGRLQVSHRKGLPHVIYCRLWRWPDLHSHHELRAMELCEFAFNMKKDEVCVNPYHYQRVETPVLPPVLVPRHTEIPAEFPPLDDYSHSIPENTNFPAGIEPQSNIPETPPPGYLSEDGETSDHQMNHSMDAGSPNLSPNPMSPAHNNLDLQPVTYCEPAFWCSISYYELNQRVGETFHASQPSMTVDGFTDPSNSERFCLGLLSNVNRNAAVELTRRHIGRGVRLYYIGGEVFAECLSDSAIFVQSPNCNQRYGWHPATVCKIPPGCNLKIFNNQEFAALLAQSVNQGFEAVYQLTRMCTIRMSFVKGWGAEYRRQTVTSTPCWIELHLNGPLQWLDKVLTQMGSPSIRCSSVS
UniProt P46935: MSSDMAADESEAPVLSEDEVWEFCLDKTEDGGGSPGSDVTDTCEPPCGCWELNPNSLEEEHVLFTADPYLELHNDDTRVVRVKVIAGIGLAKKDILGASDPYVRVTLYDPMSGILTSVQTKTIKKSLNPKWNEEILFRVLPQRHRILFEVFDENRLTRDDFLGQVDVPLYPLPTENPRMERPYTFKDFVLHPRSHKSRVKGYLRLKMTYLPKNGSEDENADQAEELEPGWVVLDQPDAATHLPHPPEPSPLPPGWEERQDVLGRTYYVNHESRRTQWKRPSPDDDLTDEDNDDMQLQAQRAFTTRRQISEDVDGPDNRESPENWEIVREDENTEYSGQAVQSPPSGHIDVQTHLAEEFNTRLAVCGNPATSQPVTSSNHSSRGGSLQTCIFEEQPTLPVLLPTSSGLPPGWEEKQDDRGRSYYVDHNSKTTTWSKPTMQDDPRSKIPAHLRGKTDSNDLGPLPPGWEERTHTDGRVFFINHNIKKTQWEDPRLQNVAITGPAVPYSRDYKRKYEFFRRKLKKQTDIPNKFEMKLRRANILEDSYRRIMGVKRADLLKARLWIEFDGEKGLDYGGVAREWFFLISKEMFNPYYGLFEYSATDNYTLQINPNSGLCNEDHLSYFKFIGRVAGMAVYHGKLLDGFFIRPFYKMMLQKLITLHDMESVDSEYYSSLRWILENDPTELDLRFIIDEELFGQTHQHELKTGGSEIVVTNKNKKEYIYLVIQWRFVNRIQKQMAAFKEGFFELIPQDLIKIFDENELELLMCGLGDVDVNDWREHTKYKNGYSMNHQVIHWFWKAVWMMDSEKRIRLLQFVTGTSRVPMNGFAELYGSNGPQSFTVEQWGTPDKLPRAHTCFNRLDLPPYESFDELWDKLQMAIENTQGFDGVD

Assay [2] concerns the target Phosphorylated Smad3 (mouse (endogenous in primary mouse pulmonary fibroblasts)) (UniProt Q8BUN5). Described as above.

Results are given in words; binding and its absence hold for the method and conditions named. Binding seen in cells or lysates may run through a third protein. Some entries that bind do so weakly or less than the wild type.

As to “Nedd4 (from UniProt P46935 1-887) (enzyme)”, in assay [1], the binding result is given as “binds”.

In the case of “Peroxisome proliferator-activated receptor gamma (from UniProt P37238 1-505)”, in assay [2], the binding result is on record as “binds”.

For the origin of these results see PMC12785948.
